Assay results taken from PubChem BioAssay AID330 (DTP/NCI, 2004).
The list does not hold the whole screen: it covers a few groups of compounds. Other doses and runs of a compound may be missing. T/C: endpoint of the treated group in % of that of the vehicle group. Where survival is the endpoint, the PubChem record calls one and a half times the control and up active, and a quarter to a half above the control has no call in these data; cut-offs in other NCI protocols can differ. Schedule codes are those of the source, taken here to give the interval after Q, in days (D) or hours (H), and the number of doses after X. Some entries show no survivor count and are marked so; the dose need not have been tolerated. Some entries hold several experiments; the results are listed from low to high. Signs of the kind (2×) count equal records among those shown.

System: P388 leukemia ip, CD2F1 mice, survival T/C
Assay: NCI In Vivo Anticancer Drug Screen. Data for tumor model P388 Leukemia (intraperitoneal) in CD2F1 (CDF1) mice
Conditions: T/C endpoint: median survival time, higher T/C = longer survival

Q: Which T/C (dose: 0.06 mg/kg/injection, schedule: Q03HX016 (ip), vehicle: saline) does the source give for CC(=O)OCC12CCC(C)=CC1OC1C(O)C(OC(C)=O)C2(C)C12CO2 (stereo not drawn) here?
A: Its T/C is 122 % of control [survivor count not shown].

Q: What about the T/C (dose: 0.06 mg/kg/injection, schedule: Q03HX024 (ip), vehicle: saline) of the same molecule?
A: Its T/C is 136 % of control [survivor count not shown].

Q: And the T/C (dose: 0.13 mg/kg/injection, schedule: Q01DX009 (ip), vehicle: saline sonified)?
A: The T/C was 129 % of control [survivor count not shown].

Q: And the T/C (dose: 0.13 mg/kg/injection, schedule: Q03HX008 (ip), vehicle: saline)?
A: Its T/C is 136 % of control [survivor count not shown].

Q: What about the T/C (dose: 0.13 mg/kg/injection, schedule: Q03HX024 (ip), vehicle: saline) of the same molecule?
A: Its T/C is 150 % of control [survivor count not shown].

Q: What about the T/C (dose: 0.25 mg/kg/injection, schedule: Q01DX009 (ip), vehicle: saline sonified) of the same molecule?
A: Its T/C is 133 % of control [survivor count not shown].

Q: And the T/C (dose: 0.25 mg/kg/injection, schedule: Q01DX009 (ip), vehicle: saline with Tween-80)?
A: The T/C was 151 % of control [survivor count not shown].

Q: What about the T/C (dose: 0.25 mg/kg/injection, schedule: Q01DX009 (ip), vehicle: saline, evaluated on day 5) of the same molecule?
A: The T/C was 141 [survivor count not shown] and 157 % of control [survivor count not shown].

Q: What about the T/C (dose: 0.25 mg/kg/injection, schedule: Q01DX009 (ip), vehicle: saline, evaluated on day 60) of the same molecule?
A: Its T/C is 160 % of control [survivor count not shown].

Q: What about the T/C (dose: 0.25 mg/kg/injection, schedule: Q03HX016 (ip), vehicle: saline) of the same molecule?
A: Its T/C is 140 % of control [survivor count not shown].

Q: What about the T/C (dose: 0.25 mg/kg/injection, schedule: Q03HX024 (ip), vehicle: saline) of the same molecule?
A: Its T/C is 177 % of control [survivor count not shown].

Q: And the T/C (dose: 0.5 mg/kg/injection, schedule: Q01DX005 (ip), vehicle: saline)?
A: Its T/C is 142 % of control [survivor count not shown].

Q: And the T/C (dose: 0.5 mg/kg/injection, schedule: Q01DX005 (ip), vehicle: water)?
A: The T/C was 138 [survivor count not shown] and 144 % of control [survivor count not shown].

Q: What about the T/C (dose: 0.5 mg/kg/injection, schedule: Q01DX009 (ip), vehicle: saline + alcohol, evaluated on day 30) of the same molecule?
A: The T/C was 144 [survivor count not shown], 161 [survivor count not shown], 169 % of control [survivor count not shown].

Q: What about the T/C (dose: 0.5 mg/kg/injection, schedule: Q01DX009 (ip), vehicle: saline + alcohol, evaluated on day 35) of the same molecule?
A: Its T/C is 158 % of control [survivor count not shown].

Q: And the T/C (dose: 0.5 mg/kg/injection, schedule: Q01DX009 (ip), vehicle: saline with Tween-80)?
A: The T/C was 134 [survivor count not shown], 151 [survivor count not shown], 171 % of control [survivor count not shown].

Q: And the T/C (dose: 0.5 mg/kg/injection, schedule: Q01DX009 (ip), vehicle: saline, evaluated on day 5)?
A: The T/C was 151 [survivor count not shown] and 182 % of control [survivor count not shown].

Q: And the T/C (dose: 0.5 mg/kg/injection, schedule: Q01DX009 (ip), vehicle: saline, evaluated on day 30)?
A: The T/C was 100 [survivor count not shown], 135 [survivor count not shown], 145 [survivor count not shown], 147 [survivor count not shown], 153 [survivor count not shown], 158 [survivor count not shown] (2×), 171 % of control [survivor count not shown].

Q: What about the T/C (dose: 0.5 mg/kg/injection, schedule: Q01DX009 (ip), vehicle: saline, evaluated on day 60) of the same molecule?
A: Its T/C is 160 % of control [survivor count not shown].

Q: And the T/C (dose: 0.5 mg/kg/injection, schedule: Q01DX009 (ip), vehicle: water, evaluated on day 30)?
A: Its T/C is 136 [survivor count not shown], 152 [survivor count not shown], 156 [survivor count not shown], 157 % of control [survivor count not shown] (2×).

Q: What about the T/C (dose: 0.5 mg/kg/injection, schedule: Q01DX009 (ip), vehicle: water, evaluated on day 45) of the same molecule?
A: Its T/C is 158 % of control [survivor count not shown].

Q: And the T/C (dose: 0.5 mg/kg/injection, schedule: Q01DX009 (iv), vehicle: saline)?
A: Its T/C is 136 % of control [survivor count not shown].

Q: What about the T/C (dose: 0.5 mg/kg/injection, schedule: Q01DX009 (sc), vehicle: saline) of the same molecule?
A: The T/C was 150 % of control [survivor count not shown].

Q: And the T/C (dose: 0.5 mg/kg/injection, schedule: Q03HX008 (ip), vehicle: saline)?
A: Its T/C is 136 % of control [survivor count not shown].

Q: And the T/C (dose: 0.5 mg/kg/injection, schedule: Q03HX016 (ip), vehicle: saline)?
A: The T/C was 165 % of control [survivor count not shown].

Q: And the T/C (dose: 0.5 mg/kg/injection, schedule: Q03HX024 (ip), vehicle: saline)?
A: The T/C was 172 [survivor count not shown] and 186 % of control [survivor count not shown].

Q: And the T/C (dose: 1.0 mg/kg/injection, schedule: Q01DX005 (ip), vehicle: saline)?
A: The T/C was 149 % of control [survivor count not shown].

Q: And the T/C (dose: 1.0 mg/kg/injection, schedule: Q01DX005 (ip), vehicle: water)?
A: Its T/C is 151 [survivor count not shown] and 152 % of control [survivor count not shown].
